Results on 2 molecules are retold here after patent US20220056134A1 (Genentech, published 2022).

Sequences of proteins named here, by UniProt entry; tags and fusion partners are left off. Residues count along the entry.
UniProt P35225, residues 35-146: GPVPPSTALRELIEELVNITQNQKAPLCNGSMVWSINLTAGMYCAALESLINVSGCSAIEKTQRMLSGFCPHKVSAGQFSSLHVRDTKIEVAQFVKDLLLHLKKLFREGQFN

Where a chain is given by its changes, count along the chain named. These are yes or no findings as the source states them, for the method shown. Some entries that bind do so weakly or less than the wild type.

The target of the test is IL-13 (in-house) (UniProt P35225). As to the kind of experiment: SPR.

B1: anti-IL-13 Fab variant CDR H3 D95A (Fab, name in Kabat numbering, V domains shown)
VH: EVTLRESGPALVKPTQTLTLTCTVSGFSLSAYSVNWIRQPPGKALEWLAMIWGDGKIVYNSALKSRLTISKDTSKNQVVLTMTNMDPVDTATYYCAGAGYYPYAMDNWGQGSLVTVSS
VL: DIVLTQSPDSLSVSLGERATINCRASKSVDSYGNSFMHWYQQKPGQPPKLLIYLASNLESGVPDRFSGSGSGTDFTLTISSLQAEDVAVYYCQQNNEDPRTFGGGTKVEIK
notes: Fab; variable domains only; Kabat numbering
As for B1, the binding entry is “binds”.

B2: anti-IL-13 Fab variant CDR H3 P99A (Fab, name in Kabat numbering, V domains shown)
VH: B1 VH with A98D, P102A
VL: B1 VL
notes: as for B1
As for B2, the binding entry is recorded as “binds”.
